# Results are given in words; binding and its absence hold for the method and conditions named. Binding seen in cells or lysates may run through a third protein. Some binding calls cover weakened binding; strength is not graded here. Tags and fused reporters may be left off the sequences shown.
# T1: GST-TIA1 (UniProt P31483)
# T1 sequence: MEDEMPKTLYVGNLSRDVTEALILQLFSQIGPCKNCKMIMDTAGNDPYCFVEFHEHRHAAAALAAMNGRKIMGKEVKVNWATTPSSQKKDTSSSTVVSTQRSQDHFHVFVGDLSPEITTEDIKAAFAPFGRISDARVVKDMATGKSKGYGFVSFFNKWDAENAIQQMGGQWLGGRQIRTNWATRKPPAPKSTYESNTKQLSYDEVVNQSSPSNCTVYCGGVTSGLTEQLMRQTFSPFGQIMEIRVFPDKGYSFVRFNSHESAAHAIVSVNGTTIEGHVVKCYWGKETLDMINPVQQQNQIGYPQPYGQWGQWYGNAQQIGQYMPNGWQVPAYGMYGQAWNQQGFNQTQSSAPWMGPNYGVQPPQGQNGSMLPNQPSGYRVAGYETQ
# T2: HA-TIA1 (expressed in HEK293T) (UniProt P31483)
# T2 sequence: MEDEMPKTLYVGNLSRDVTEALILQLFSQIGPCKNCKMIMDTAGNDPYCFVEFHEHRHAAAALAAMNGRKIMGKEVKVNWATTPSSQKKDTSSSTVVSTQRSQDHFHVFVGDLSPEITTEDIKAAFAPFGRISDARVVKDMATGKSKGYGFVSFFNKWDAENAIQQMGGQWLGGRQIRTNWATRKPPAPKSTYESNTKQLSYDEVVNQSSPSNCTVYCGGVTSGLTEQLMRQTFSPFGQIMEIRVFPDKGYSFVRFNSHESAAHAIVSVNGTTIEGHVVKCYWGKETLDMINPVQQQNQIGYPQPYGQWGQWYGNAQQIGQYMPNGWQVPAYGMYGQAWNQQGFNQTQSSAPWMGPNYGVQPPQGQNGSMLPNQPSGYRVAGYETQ
# Experiments:
# GST-TIA1 = target: T1, GST-TIA1; assay: pull-down; purified GST fusion added to P14 rat cortical lysate in RIPA buffer, 4 °C, captured on glutathione resin, NP40 wash buffer; western blot; only the target purified
# [1] = target: T2, HA-TIA1 (expressed in HEK293T); assay: co-IP; HEK293T co-transfected, NP40 lysis buffer, anti-Flag M2 or anti-HA beads, 3 h at 4 °C, wash with 300 mM NaCl; with or without overexpressed Myc-ANXA7
binder,measurement,setting,value
"Annexin A7 (ANXA7), endogenous (protein, UniProt Q6IRJ7 1-485) MSYPGYPPTGYPPFPGYPPAGQESSFPTSGQYPYPSGFPPMGGGAYPPAPSGGYPGAGGYPSPGGYPAPGGYPGTLNPGGPPSYPGGQGFGAPPGGAGFSGYPQPPAQSYGGGPAQVPVPGGFPGGQMPSQYPGGQSPYPGQIDTESFSSYPAFSPVSLDYSSDPAAMTQGTQGTIRPASNFDAMRDAEILRKAMKGFGTDEQAIVDVVSNRSNDQRQQIKAAFKTMYGKDLIKDLKSELSGNMEELILALFMPPTYYDAWSLRKAIQGAGTQERVLIEILCTRTNQEIRDIVRCYQLEFGRELERDIRSDTSGHFERLLVSMCQGNRDESPSINHQMAQEDAQRLYQAGEGRLGTDESCFNMILATRSFPQLRATMEAYSRMANRDLLSSVSREFSGYVESGLKTILQCALNRPAFFAERLYYSMKGAGTDDSTLVRIVVTRSEIDLVQIKQMFTQMYQKTLSTMIASDTSGDYRKLLLAIVGQ",binding,GST-TIA1,binds
"Myc-ANXA7 (expressed in HEK293T) (protein, UniProt Q6IRJ7 1-485) MSYPGYPPTGYPPFPGYPPAGQESSFPTSGQYPYPSGFPPMGGGAYPPAPSGGYPGAGGYPSPGGYPAPGGYPGTLNPGGPPSYPGGQGFGAPPGGAGFSGYPQPPAQSYGGGPAQVPVPGGFPGGQMPSQYPGGQSPYPGQIDTESFSSYPAFSPVSLDYSSDPAAMTQGTQGTIRPASNFDAMRDAEILRKAMKGFGTDEQAIVDVVSNRSNDQRQQIKAAFKTMYGKDLIKDLKSELSGNMEELILALFMPPTYYDAWSLRKAIQGAGTQERVLIEILCTRTNQEIRDIVRCYQLEFGRELERDIRSDTSGHFERLLVSMCQGNRDESPSINHQMAQEDAQRLYQAGEGRLGTDESCFNMILATRSFPQLRATMEAYSRMANRDLLSSVSREFSGYVESGLKTILQCALNRPAFFAERLYYSMKGAGTDDSTLVRIVVTRSEIDLVQIKQMFTQMYQKTLSTMIASDTSGDYRKLLLAIVGQ",binding,[1],binds

# Reference: article PMC12706091
